Results published in PMC3006391.

Sequences of proteins named here, by UniProt entry; tags and fusion partners are left off. A change or cut given only in a name is not applied to a line headed by its entry. Residues count along the entry.
UniProt O75964: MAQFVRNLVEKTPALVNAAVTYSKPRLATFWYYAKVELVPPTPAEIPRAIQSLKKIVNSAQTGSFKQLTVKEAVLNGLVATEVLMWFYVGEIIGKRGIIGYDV
UniProt P27824, residues 21-592: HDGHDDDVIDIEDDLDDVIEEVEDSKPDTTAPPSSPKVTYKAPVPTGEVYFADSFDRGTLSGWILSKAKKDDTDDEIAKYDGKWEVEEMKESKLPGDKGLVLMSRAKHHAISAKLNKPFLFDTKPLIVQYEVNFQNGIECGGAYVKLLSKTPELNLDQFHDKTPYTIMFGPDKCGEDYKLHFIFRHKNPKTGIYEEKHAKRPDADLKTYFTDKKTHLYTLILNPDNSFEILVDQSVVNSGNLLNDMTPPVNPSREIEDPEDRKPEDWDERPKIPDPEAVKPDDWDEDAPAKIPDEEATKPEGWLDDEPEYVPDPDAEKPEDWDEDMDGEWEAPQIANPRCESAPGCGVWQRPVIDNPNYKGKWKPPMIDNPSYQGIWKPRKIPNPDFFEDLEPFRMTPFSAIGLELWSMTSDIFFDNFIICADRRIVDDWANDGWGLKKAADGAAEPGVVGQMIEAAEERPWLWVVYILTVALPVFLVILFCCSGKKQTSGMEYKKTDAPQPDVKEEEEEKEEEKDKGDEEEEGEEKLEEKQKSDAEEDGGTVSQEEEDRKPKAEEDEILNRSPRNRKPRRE
UniProt O43169: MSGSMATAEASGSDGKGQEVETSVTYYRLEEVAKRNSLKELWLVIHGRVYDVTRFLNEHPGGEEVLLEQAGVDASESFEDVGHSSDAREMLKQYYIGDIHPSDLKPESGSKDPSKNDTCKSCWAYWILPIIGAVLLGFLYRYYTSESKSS
UniProt P13164: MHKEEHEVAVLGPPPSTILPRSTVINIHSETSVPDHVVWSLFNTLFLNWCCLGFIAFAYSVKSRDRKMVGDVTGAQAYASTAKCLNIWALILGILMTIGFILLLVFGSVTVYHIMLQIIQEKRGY
UniProt P60468: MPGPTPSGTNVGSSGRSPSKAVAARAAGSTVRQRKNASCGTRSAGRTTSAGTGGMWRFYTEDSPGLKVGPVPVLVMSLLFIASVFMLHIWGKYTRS
UniProt P21796: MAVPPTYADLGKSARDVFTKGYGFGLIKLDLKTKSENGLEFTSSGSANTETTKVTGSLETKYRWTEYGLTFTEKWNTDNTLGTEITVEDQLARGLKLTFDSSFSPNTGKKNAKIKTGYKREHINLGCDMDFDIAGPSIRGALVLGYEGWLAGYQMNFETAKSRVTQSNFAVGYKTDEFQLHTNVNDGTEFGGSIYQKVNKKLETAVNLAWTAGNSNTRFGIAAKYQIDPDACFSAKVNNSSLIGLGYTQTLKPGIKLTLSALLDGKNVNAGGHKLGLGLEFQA
UniProt P25705, residues 44-553: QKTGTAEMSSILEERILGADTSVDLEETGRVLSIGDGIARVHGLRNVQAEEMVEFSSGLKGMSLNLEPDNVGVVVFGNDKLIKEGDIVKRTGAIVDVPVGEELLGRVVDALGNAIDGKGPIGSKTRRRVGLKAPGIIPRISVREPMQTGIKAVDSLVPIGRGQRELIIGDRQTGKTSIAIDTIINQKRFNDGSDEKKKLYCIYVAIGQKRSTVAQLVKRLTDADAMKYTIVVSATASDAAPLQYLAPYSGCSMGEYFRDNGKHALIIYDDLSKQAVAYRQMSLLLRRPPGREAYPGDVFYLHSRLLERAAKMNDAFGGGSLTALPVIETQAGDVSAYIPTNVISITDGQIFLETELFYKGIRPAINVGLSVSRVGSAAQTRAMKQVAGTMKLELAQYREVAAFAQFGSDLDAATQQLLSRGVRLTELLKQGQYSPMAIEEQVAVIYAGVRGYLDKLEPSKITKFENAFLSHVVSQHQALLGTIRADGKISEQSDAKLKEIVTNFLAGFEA
UniProt P51149: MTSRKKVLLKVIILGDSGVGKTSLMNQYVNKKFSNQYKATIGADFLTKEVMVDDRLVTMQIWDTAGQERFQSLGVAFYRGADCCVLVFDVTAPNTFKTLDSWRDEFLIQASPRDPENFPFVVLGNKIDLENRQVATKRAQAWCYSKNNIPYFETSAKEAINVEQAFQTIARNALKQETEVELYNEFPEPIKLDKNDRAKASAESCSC
UniProt Q15836: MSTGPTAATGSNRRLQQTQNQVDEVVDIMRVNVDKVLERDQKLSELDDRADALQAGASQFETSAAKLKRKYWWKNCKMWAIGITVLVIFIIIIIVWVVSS
UniProt O75396: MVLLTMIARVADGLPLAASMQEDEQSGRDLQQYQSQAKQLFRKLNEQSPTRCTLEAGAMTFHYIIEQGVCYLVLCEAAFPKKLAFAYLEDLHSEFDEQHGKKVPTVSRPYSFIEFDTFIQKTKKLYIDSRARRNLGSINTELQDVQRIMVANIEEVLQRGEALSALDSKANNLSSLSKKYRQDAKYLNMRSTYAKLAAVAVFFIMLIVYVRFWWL

What follows are substances tested against TAP-Bcl-xL (UniProt Q07817) (assay: affinity purification with mass spectrometry; Tandem Affinity Purification from CHAPS (1%) extracts of total membranes of HeLa cells stably expressing TAP-Bcl-xL: IgG agarose, TEV cleavage, calmodulin resin, EGTA elution; most abundant Coomassie bands cut and identified by LC-MS/MS; TAP-stop cells as control).

Row | Substance | binding
1 | ATP synthase beta subunit (from UniProt P06576 48-529) | binds
2 | ATP synthase g subunit (from UniProt O75964 1-103) | binds
3 | Calnexin (from UniProt P27824-1 21-592) | binds
4 | Cytochrome b5 type B (from UniProt O43169) | binds
5 | Interferon induced transmembrane protein 1 (from UniProt P13164 1-125) | binds
6 | Prohibitin 2 (from UniProt Q99623-1 1-299) | binds
7 | SEC61 beta subunit (from UniProt P60468 1-96) | binds
8 | Voltage-dependent anion channel 1 (from UniProt P21796 1-283) | binds

Other lines, results leading:

Row | binding | Substance
9 | binds | ATP synthase alpha subunit (from UniProt P25705-1 44-553)
10 | binds | RAB7A, member RAS oncogene family (from UniProt P51149 1-207)
11 | binds | Solute carrier family 3, member 2 (from UniProt P08195 1-529)
12 | binds | Vesicle associated membrane protein 3 (from UniProt Q15836 1-100)
13 | binds | Vesicle trafficking protein sec22b (from UniProt O75396 1-215)

These are yes or no findings as the source states them, for the method shown. In cells and extracts the contact can be indirect. Here binding means that the protein was enriched with, or labelled near, the bait; the list need not be complete.
